At least one compound was matched to its structure with a doubt left.
Molecular target: Human CDK12 wt/CycK (Homo sapiens (Human), UniProt Q9NYV4)
Experiment: Radiometric protein kinase assay (33PanQinase Activity Assay), CDK12
Assay type: biochemical
Details: Table 1; ratio greater than 1 indicated selectivity for CDK12
Procedure: A radiometric protein kinase assay (^33PanQinase® Activity Assay) was used for measuring the kinase activity of the two protein kinases (CDK12/CDK7). All kinase assays were performed in 96-well FlashPlates™ from PerkinElmer (Boston, MA, USA) in a 50 μL reaction volume.
The reaction cocktail was pipetted in four steps in the following order: • 20 μL of assay buffer (standard buffer) • 5 μL of ATP solution (in H2O) • 5 μL of test compound (in 10% DMSO) • 10 μL of substrate/10 μL of enzyme solution (premixed)
The reaction mixture was incubated at 30° C. for 60 min and then stopped by the addition of 2% (v/v) H3PO4. Plates were aspirated and washed two times with 200 μL 0.9% (w/v) NaCl. Incorporation of ^33Pi was determined with a microplate scintillation count (Microbeta, Wallac).
The fitting method used was a least-squares fit.

Chains of the proteins cited; added tags and fusions are not shown.
UniProt Q9NYV4, whole entry: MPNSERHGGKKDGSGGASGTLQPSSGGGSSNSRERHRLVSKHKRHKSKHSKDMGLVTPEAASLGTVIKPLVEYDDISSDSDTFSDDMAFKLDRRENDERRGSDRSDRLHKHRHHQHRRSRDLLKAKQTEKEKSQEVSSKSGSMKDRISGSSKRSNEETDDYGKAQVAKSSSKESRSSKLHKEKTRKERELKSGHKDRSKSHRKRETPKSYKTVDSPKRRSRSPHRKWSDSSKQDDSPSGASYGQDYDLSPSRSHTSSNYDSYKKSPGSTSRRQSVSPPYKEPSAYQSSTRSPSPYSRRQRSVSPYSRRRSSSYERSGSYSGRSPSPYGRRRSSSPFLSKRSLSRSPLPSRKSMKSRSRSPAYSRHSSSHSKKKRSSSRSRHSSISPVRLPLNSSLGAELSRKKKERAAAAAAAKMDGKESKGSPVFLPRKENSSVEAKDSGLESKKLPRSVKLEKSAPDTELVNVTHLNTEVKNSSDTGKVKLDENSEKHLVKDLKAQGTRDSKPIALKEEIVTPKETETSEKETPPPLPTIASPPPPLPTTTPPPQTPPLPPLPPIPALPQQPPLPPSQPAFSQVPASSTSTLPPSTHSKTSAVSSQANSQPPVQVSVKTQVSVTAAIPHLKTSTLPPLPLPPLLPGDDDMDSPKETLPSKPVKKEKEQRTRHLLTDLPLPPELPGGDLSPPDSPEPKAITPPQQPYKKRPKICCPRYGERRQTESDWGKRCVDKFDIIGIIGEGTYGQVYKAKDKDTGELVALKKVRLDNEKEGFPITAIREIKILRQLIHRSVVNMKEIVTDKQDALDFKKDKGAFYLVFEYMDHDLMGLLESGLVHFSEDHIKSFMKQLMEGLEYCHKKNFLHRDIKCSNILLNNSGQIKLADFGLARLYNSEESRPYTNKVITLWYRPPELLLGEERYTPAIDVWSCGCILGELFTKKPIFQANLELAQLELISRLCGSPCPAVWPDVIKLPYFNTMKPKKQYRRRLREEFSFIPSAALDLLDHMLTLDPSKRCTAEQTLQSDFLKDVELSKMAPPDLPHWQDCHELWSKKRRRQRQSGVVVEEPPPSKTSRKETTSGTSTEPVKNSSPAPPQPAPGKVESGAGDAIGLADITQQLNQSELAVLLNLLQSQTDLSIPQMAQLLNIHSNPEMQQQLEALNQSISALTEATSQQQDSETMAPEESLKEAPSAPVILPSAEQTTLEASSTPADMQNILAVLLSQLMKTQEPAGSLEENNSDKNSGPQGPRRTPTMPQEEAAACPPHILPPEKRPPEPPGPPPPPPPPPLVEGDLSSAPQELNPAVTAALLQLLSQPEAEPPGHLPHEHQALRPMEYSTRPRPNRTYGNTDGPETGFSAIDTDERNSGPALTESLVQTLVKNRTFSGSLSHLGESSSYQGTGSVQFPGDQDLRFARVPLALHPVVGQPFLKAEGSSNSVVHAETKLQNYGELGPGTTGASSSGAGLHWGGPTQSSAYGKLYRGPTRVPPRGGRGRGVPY

CC(C)c1cnn2c(NCc3ccncc3)cc(NC[C@H]3CCNC[C@@H]3O)nc12 [REF-002, reference compound]
CDK7/CDK12: 0.494

CC(C)c1cnn2c(Nc3csc4ccccc34)cc(NC[C@H]3CCNC[C@@H]3O)nc12 [REF-003, reference compound]
CDK7/CDK12: 0.018
